Each structure is given as a SMILES string. The list shows a part of the results. Repeats in this data set agree poorly, so a single value says little.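 A first-round screen of about ten thousand compounds sought those raising reporter output, using human embryonic kidney cells briefly transfected with a plasmid carrying a Renilla luciferase gene driven by the HSV-TK promoter.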

The test system of this experiment is HEK 293FT. The experiment can be described thus: log relative Renilla luciferase luminescence (reporter expression vs reference, reference not stated) (log (base not stated)); higher = higher recombinant reporter expression. As to conditions: 10 µM; time after transfection 48 h. The method, then: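 HEK 293FT cells transiently transfected with pRL-TK (Renilla luciferase) were treated with compounds at 10 uM and luminescence was read about 42 h later. Values are log relative Renilla luminescence (log base and reference not stated). Single-pass screen; ICCB Known Bioactives library.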
Regarding `CCCCCCCCCCCC=CC(C)(C)C=CCCCC(=O)O` [7,7-Dimethyleicosadienoic acid], the log worked out at 0.102.

For the molecule `CCCCCCCCCCCCC/C=C/[C@@H](O)[C@@H](N)CO` [Sphingosine], the log is -0.149.

As for `CC(=O)NC(C)(C)C(=O)N1CCC[C@H]1C(=O)NC(C)(C)C(=O)N[C@@H](C)C(=O)NC(C)(C)C(=O)N[C@@H](C)C(=O)N[C@@H](CCC(N)=O)C(=O)NC(C)(C)C(=O)N[C@H](C(=O)NC(C)(C)C(=O)NCC(=O)N[C@@H](CC(C)C)C(=O)NC(C)(C)C(=O)N1CCC[C@H]1C(=O)N[C@H](C(=O)NC(C)(C)C(=O)NC(C)(C)C(=O)N[C@@H](CCC(=O)O)C(=O)N[C@@H](CCC(N)=O)C(=O)N[C@H](CO)Cc1ccccc1)C(C)C)C(C)C` [Alamethicin], the log was -0.183.

`O=C(O)CCCC=CCC1C2CCC(O2)C1CNNC(=O)Nc1ccccc1` (stereo not given): the log was -0.0896.

Regarding `COc1cc2c3cc1Oc1c(OC)c(OC)cc4c1[C@@H](Cc1ccc(OC(=O)c5ccc([N+](=O)[O-])cc5)c(c1)Oc1ccc(cc1)C[C@@H]3N(C)CC2)N(C)CC4` [E6 Berbamine], the log came to 0.407.

`NCCc1c[nH]cn1` [Histamine]: the log came to 0.371.

As for `Nc1ncnc2c1c(I)cn2[C@@H]1O[C@H](CO)[C@@H](O)[C@H]1O` [5-Iodotubercidin], the log is -1.04.

Consider `CC(C)COCC(CN(Cc1ccccc1)c1ccccc1)N1CCCC1` (stereo not given) [Bepridil], for which the log is 0.0255.

In the case of `C=C1CCC(O)C/C1=C\C=C1\CCCC2(C)C1CCC2C(C)CCC(O)C(C)(C)O` (stereo not given) [24,25-Dihydroxyvitamin D3], the log is 0.149.

For `CC/C=C\C/C=C\C/C=C\C/C=C\C/C=C\C/C=C\CCC(=O)O` [Docosahexaenoic acid (22:6 n-3)], the log was -0.256.

Source of the values: the supplement of paper PMC7024190.
